Measured values published in patent US20060160201A1, “Three-dimensional structures of HDAC9 and Cabin1 and compound structures and methods related thereto” (priority 2003, published 2006).
Results are given in words; binding and its absence hold for the method and conditions named. Some results given as binding are weak or reduced against the parent protein; the word gives no strength.

Molecular target: T1, MEF2 (construct not stated) (human, UniProt Q02080 1-365, limits assumed)
T1 construct: The actual construct is unknown; also called MEF2B
T1 sequence: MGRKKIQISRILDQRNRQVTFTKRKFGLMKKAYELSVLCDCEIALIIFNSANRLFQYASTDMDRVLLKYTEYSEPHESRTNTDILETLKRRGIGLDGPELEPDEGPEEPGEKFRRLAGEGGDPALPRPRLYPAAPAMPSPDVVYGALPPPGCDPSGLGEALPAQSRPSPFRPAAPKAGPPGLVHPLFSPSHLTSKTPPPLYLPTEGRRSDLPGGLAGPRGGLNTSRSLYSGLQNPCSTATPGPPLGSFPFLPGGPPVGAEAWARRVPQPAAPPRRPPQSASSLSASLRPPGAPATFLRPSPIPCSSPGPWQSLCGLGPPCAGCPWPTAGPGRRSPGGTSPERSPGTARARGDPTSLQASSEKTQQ
Assay: discussion of the examples; assay not named here

B1: HDAC9 peptide RAVASTEVKQKLQEFLLSK (19 residues) (peptide)
peptide: RAVASTEVKQKLQEFLLSK
notes: also called 19-mer peptide of HDAC9
binding: binds
